Where a name gives a salt, the structure may show the parent alone. In all, about 5,300 compounds went through this assay and about 130 (2.5%) showed an effect of 50% or more. The list shows a part of the results.
These compounds were tested on M. mycetomatis strain mm55. Settings: primary screen, metabolic activity vs growth control; 96 h, 2 µM; inhibitor.

| SMILES | % viability [%] |
| --- | --- |
| CCCCC[C@H](O)/C=C/[C@H]1[C@H](O)CC(=O)[C@@H]1CCCCCCC(=O)O [ONC0003024, alprostadil] | 66.38 |
| CC(=O)Nc1ccc(C(=O)O)cc1 [ONC0000516, acedoben] | 86.61 |
| CC1(C)CNc2cc(NC(=O)c3cccnc3NCc3ccncc3)ccc21 [ONC0002099, motesanib] | 65.5 |
| CN[C@@H](C)C(=O)N[C@H]1CCCC[C@H]2CCC(C(=O)N[C@@H](c3ccccc3)c3cn(CCCCc4ccc(CCCCn5cc([C@@H](NC(=O)[C@@H]6CC[C@@H]7CCCC[C@H](NC(=O)[C@H](C)NC)C(=O)N76)c6ccccc6)nn5)cc4)nn3)N2C1=O (some centres unmarked) [ONC0003931, sm164] | 63.69 |
| Cn1cc(-c2[nH]c3cc(NC(=O)[C@H](N)C4CCCCC4)cc4c3c2C=NNC4=O)cn1 [ONC0000230, pf477736] | 65.6 |
| C=C[C@@]1(C)CC(=O)[C@@]2(O)[C@](C)(O1)[C@@H](OC(C)=O)[C@@H](O)C1C(C)(C)CC[C@H](O)[C@@]12C (some centres unmarked) [ONC0002365, colforsin] | 68.17 |
| COC(=O)C1=C(C)NC(C)=C(C(=O)OCC(C)C)C1c1ccccc1[N+](=O)[O-] (centres unmarked) [ONC0001302, nisoldipine] | 76.31 |
| CC1(C)CCC(C)(C)c2cc(C(=O)Nc3ccc(C(=O)O)cc3)ccc21 [ONC0000710, am580] | 97.2 |
| O=C1Cc2c([nH]c3ccc(Br)cc23)-c2ncccc2N1 [ONC0004314] | 117.8 |
| COc1ccc2cc(OCC3(C(=O)O)CN(C(=O)c4ccc(F)cc4)C3)ccc2c1 [ONC0002721, pf04418948] | 59.88 |
| CCCn1c(=O)c2[nH]cnc2n(-c2ccc(Cl)cc2)c1=O [ONC0002882, 34chlorophenyl1propyl37dihydro1hpurine26dione] | 107.6 |
| Oc1cc(O)c(Cl)cn1 [ONC0004771, gimeracil] | 94.06 |
| COCCn1c2c([n+](Cc3cnccn3)c1C)C(=O)c1ccccc1C2=O [ONC0001046, ym155] | 83.36 |
| NCCCC[C@H](NC(=O)[C@@H]1CCCN1C(=O)[C@@H]1CSSC[C@H](N)C(=O)N[C@@H](Cc2ccc(O)cc2)C(=O)N[C@@H](Cc2ccccc2)C(=O)N[C@@H](CCC(N)=O)C(=O)N[C@@H](CC(N)=O)C(=O)N1)C(=O)NCC(N)=O [ONC0002936, lypressin] | 74.45 |
| COCCOc1ccc2c(c1)ncn2-c1ccc2cccc(N3CCC(N)CC3)c2n1 [ONC0004866, cp 673451] | 114.1 |
| CCOc1ccccc1-n1c(C(C)N2CCN(C(=O)COc3ccc(Cl)cc3)CC2)nc2ccccc2c1=O (centres unmarked) [ONC0004339, erastin] | 68.66 |
| CC(=O)N1CCN(C)CC1 [ONC0000037, 1acetyl4methylpiperazine] | 74.17 |
| COc1ccc(C2CC(c3ccccc3)=NN2c2ccc(S(N)(=O)=O)cc2)cc1 (centres unmarked) [ONC0002526, ml141] | 69.66 |
| CN1CCN(c2c(F)cc3c(=O)c(C(=O)O)cn4c3c2SCC4)CC1 [ONC0004109, rufloxacin hydrochloride] | 115.8 |

Another view of part of the listing above.
SMILES	% viability [%]
CN[C@@H](C)C(=O)N[C@H]1CCCC[C@H]2CCC(C(=O)N[C@@H](c3ccccc3)c3cn(CCCCc4ccc(CCCCn5cc([C@@H](NC(=O)[C@@H]6CC[C@@H]7CCCC[C@H](NC(=O)[C@H](C)NC)C(=O)N76)c6ccccc6)nn5)cc4)nn3)N2C1=O (some centres unmarked) [ONC0003931, sm164]	63.69
CC1(C)CCC(C)(C)c2cc(C(=O)Nc3ccc(C(=O)O)cc3)ccc21 [ONC0000710, am580]	97.2
COc1ccc(C2CC(c3ccccc3)=NN2c2ccc(S(N)(=O)=O)cc2)cc1 (centres unmarked) [ONC0002526, ml141]	69.66

Remaining list, next part

| SMILES | % viability [%] |
| --- | --- |
| Cc1cc(-c2ccc(CC(=O)Nc3ccc(-c4cccnc4)cc3)cc2)ccn1 [ONC0005135, wntc59 c59] | 117.7 |
| C[C@]12C=CC(=O)C=C1CCC1C2[C@@H](O)C[C@@]2(C)C1CC[C@]2(O)C(=O)CO (some centres unmarked) [ONC0005351, prednisolone] | 112.6 |
| OC[C@H]1O[C@@H](c2ccc(Cl)c(Cc3ccc(O[C@H]4CCOC4)cc3)c2)[C@H](O)[C@@H](O)[C@@H]1O [ONC0004415, empagliflozin bi10773] | 111.5 |
| COC(=O)C1=C(C)NC(C)=C(C(=O)OCCN(C)Cc2ccccc2)C1c1cccc([N+](=O)[O-])c1 (centres unmarked) [ONC0000686, nicardipine hydrochloride] | 131.5 |
| CN(C)c1cccc(-c2c3c(=O)n(-c4ccccc4Cl)[nH]c3cc(=O)n2C)c1 [ONC0005140, gkt137831] | 98.71 |
| CCCCOc1nc(N)c2c(n1)N(Cc1cccc(CN3CCCC3)c1)CC(=O)N2 [ONC0002288, vesatolimod] | 102 |
| Cc1nc(C#Cc2ccnc(Cl)c2)c(C)n1-c1ccc(OC(F)(F)F)cc1 [ONC0005233, ctep ro4956371] | 121.6 |
| Cc1ccccc1C(OCCN(C)C)c1ccccc1 (centres unmarked) [ONC0000493, orphenadrine citrate] | 77.66 |
| Cc1c(I)c(=O)n(-c2ccccc2)n1C [ONC0003597, iodoantipyrine] | 87.63 |
| CC[C@@]1(O)C(=O)OCc2c1cc1n(c2=O)Cc2c-1nc1cc(F)c(C)c3c1c2[C@@H](N)CC3.CS(=O)(=O)O [ONC0003668, exatecan mesylate] | 59.4 |
| Cc1ccc(/C=C2\CNC/C(=C\c3ccc(C)cc3)C2=O)cc1 [ONC0001273, nsc632839] | 77.71 |
| Cc1nn(C)c2c1C(c1ccc(C(F)(F)F)cc1)C(C#N)=C(N)O2 (centres unmarked) [ONC0001080, bqu57] | 74.27 |
| CNCc1cc(-c2ccccc2F)n(S(=O)(=O)c2cccnc2)c1 [ONC0005239, vonoprazan fumarate tak438] | 126.5 |
| c1ccc(CCCN2CCN(CCOC(c3ccccc3)c3ccccc3)CC2)cc1 [ONC0000798, gbr12935] | 68.39 |
| COc1c2ccoc2cc2oc(=O)ccc12 [ONC0003294, bergapten] | 47.96 |
| Cc1ccc(NC2=NCCN2)c(Cl)c1 [ONC0003745, tolonidine] | 96.65 |
| NCCCC(N)(C(=O)O)C(F)F (centres unmarked) [ONC0005502, eflornithinehcl] | 114.1 |
| CCCCCCCCCCCC1=C(O)C(=O)C=C(O)C1=O [ONC0001079, embelin] | 49.47 |
| O=C(N[C@@H]1CC[C@@H](c2cccc(F)c2F)CN(CC(F)(F)F)C1=O)N1CCC(n2c(=O)[nH]c3ncccc32)CC1 [ONC0001566, telcagepant] | 94.08 |
